PubChem BioAssay AID1259405 – NCATS, 2018

Test: 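Silenced genes that increase secreted GFP made by CHO cells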 (primary screen)
Cells: Chinese hamster CHO-K1 ovary cells with stable secreted eGFP expression
Reagents: single siRNA against mouse genes, 0.8 pmol siRNA per well (2 µl of 400 nM stock)
Time to read-out: 3 days
Measured: 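Per-well intracellular GFP measured by laser scanning cytometry, plus viability from ATP luminescence, each relative to plate median of non-targeting control wells, in %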
Scale: GFP, % of control: higher = more GFP per well, higher productivity; viability (ATP), % of control: higher = more viable cells (more ATP)
Call rule: 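a knock-down is called active if GFP reaches 120% or more of non-targeting control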
Shown is one part, drawn at random, of about 50,000 reagents tested. Over the whole deposit, about 4,000 (8%) were called active. 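Mouse siRNA library applied to hamster cells; one well for each siRNA.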 The numbers tell different reagents against one gene apart.

gene knocked down	siRNA no.	GFP, % of control	viability (ATP), % of control	activity call
Pgls (6-phosphogluconolactonase)	1	58.2	61.7	inactive
Pgls (6-phosphogluconolactonase)	2	129	62.3	active
Pgls (6-phosphogluconolactonase)	3	86.9	66.6	inactive
Ndnf (neuron-derived neurotrophic factor)	1	63.1	61.5	inactive
Ndnf (neuron-derived neurotrophic factor)	2	97.6	66.4	inactive
Ndnf (neuron-derived neurotrophic factor)	3	96.5	82	inactive
A130010J15Rik (RIKEN cDNA A130010J15 gene)	1	61.9	60.2	inactive
A130010J15Rik (RIKEN cDNA A130010J15 gene)	2	64.5	64.7	inactive
A130010J15Rik (RIKEN cDNA A130010J15 gene)	3	80.8	95	inactive
Zfp764l1 (zinc finger protein 764 like 1)	1	74.6	84	inactive
Zfp764l1 (zinc finger protein 764 like 1)	2	57.3	66	inactive
Zfp764l1 (zinc finger protein 764 like 1)	3	76.7	78.4	inactive
Lhx5 (LIM homeobox protein 5)	1	60.4	64.3	inactive
Lhx5 (LIM homeobox protein 5)	2	60.7	61.8	inactive
Lhx5 (LIM homeobox protein 5)	3	46.5	79.5	inactive
Srsf19 (serine and arginine rich splicing factor 19)	1	132	80	active
Srsf19 (serine and arginine rich splicing factor 19)	2	26	27.9	inactive
Srsf19 (serine and arginine rich splicing factor 19)	3	101	107	inactive
Bmp6 (bone morphogenetic protein 6)	1	85.4	58.7	inactive
Bmp6 (bone morphogenetic protein 6)	2	99.9	75.8	inactive
Kng2 (kininogen 2)	1	62.9	56.3	inactive
Kng2 (kininogen 2)	2	47.7	45.6	inactive
Kng2 (kininogen 2)	3	87.8	101	inactive
Defb1 (defensin beta 1)	1	54.4	55.9	inactive
Defb1 (defensin beta 1)	2	74.1	86	inactive
Defb1 (defensin beta 1)	3	57.6	64.1	inactive
Atp6v1c1 (ATPase, H+ transporting, lysosomal V1 subunit C1)	1	69.2	53.1	inactive
Atp6v1c1 (ATPase, H+ transporting, lysosomal V1 subunit C1)	2	82.5	82.4	inactive
Atp6v1c1 (ATPase, H+ transporting, lysosomal V1 subunit C1)	3	37.7	43.6	inactive
Gen1 (GEN1, Holliday junction 5' flap endonuclease)	1	73.6	58	inactive
Gen1 (GEN1, Holliday junction 5' flap endonuclease)	2	62.6	69.7	inactive
Gen1 (GEN1, Holliday junction 5' flap endonuclease)	3	59.5	59	inactive

Part of the list above, showing only “GFP, % of control”.
Atp6v1c1 (ATPase, H+ transporting, lysosomal V1 subunit C1) #2 = 82.5
Atp6v1c1 (ATPase, H+ transporting, lysosomal V1 subunit C1) #3 = 37.7
Gen1 (GEN1, Holliday junction 5' flap endonuclease) #1 = 73.6
Gen1 (GEN1, Holliday junction 5' flap endonuclease) #2 = 62.6

The listing continues:
gene knocked down	siRNA no.	GFP, % of control	viability (ATP), % of control	activity call
Ndufs1 (NADH:ubiquinone oxidoreductase core subunit S1)	1	59.2	51.6	inactive
Ndufs1 (NADH:ubiquinone oxidoreductase core subunit S1)	2	87.4	69.3	inactive
Ndufs1 (NADH:ubiquinone oxidoreductase core subunit S1)	3	60.1	68.8	inactive
Reep4 (receptor accessory protein 4)	1	106	78.7	inactive
Reep4 (receptor accessory protein 4)	2	57.7	58.6	inactive
Reep4 (receptor accessory protein 4)	3	101	140	inactive
Vmn1r210 (vomeronasal 1 receptor 210)	1	81.1	26.2	inactive
Vmn1r210 (vomeronasal 1 receptor 210)	2	65.4	96.7	inactive
Vmn1r210 (vomeronasal 1 receptor 210)	3	32.9	28.4	inactive
Klhl4 (kelch-like 4)	1	66.5	55.7	inactive
Klhl4 (kelch-like 4)	2	69.1	85.2	inactive
Klhl4 (kelch-like 4)	3	84.2	80	inactive
Washc2 (WASH complex subunit 2)	1	69	82.1	inactive
Washc2 (WASH complex subunit 2)	2	73.8	69.7	inactive
Washc2 (WASH complex subunit 2)	3	58.3	30.4	inactive
D830014E11Rik (RIKEN cDNA D830014E11 gene)	1	75.6	91.7	inactive
D830014E11Rik (RIKEN cDNA D830014E11 gene)	2	65.6	78.7	inactive
D830014E11Rik (RIKEN cDNA D830014E11 gene)	3	106	60.5	inactive
Or51f1d (olfactory receptor family 51 subfamily F member 1D)	1	90.2	36.9	inactive
Or51f1d (olfactory receptor family 51 subfamily F member 1D)	2	76.1	77.6	inactive
Or51f1d (olfactory receptor family 51 subfamily F member 1D)	3	87.7	91.8	inactive
Ubl4b (ubiquitin-like 4B)	1	88.5	68.4	inactive
Ubl4b (ubiquitin-like 4B)	2	87.1	59	inactive
Ubl4b (ubiquitin-like 4B)	3	74.6	80	inactive
Ttc4 (tetratricopeptide repeat domain 4)	1	39.4	49.6	inactive
Ttc4 (tetratricopeptide repeat domain 4)	2	75	46.7	inactive
Ttc4 (tetratricopeptide repeat domain 4)	3	100	68.4	inactive
Actl6a (actin-like 6A)	1	37.8	33	inactive
Actl6a (actin-like 6A)	2	62.7	76.5	inactive
Or13a22 (olfactory receptor family 13 subfamily A member 22)	1	64	57.4	inactive
Or13a22 (olfactory receptor family 13 subfamily A member 22)	2	82.9	104	inactive
Or13a22 (olfactory receptor family 13 subfamily A member 22)	3	55.2	75.7	inactive
Ung (uracil DNA glycosylase)	1	78.4	98.1	inactive
Ung (uracil DNA glycosylase)	2	68	78	inactive
Ung (uracil DNA glycosylase)	3	79.9	66.4	inactive
Cyth3 (cytohesin 3)	1	44.6	56.5	inactive
Cyth3 (cytohesin 3)	2	68.8	76.2	inactive
Cyth3 (cytohesin 3)	3	84.1	74.1	inactive
Nags (N-acetylglutamate synthase)	1	117	102	inactive
Nags (N-acetylglutamate synthase)	2	175	83.7	active
Nags (N-acetylglutamate synthase)	3	0.205	95.1	inactive
Nags (N-acetylglutamate synthase)	4	132	72.8	active
Nags (N-acetylglutamate synthase)	5	96.6	84.8	inactive
Nags (N-acetylglutamate synthase)	6	175	83.7	active
Lce1h (late cornified envelope 1H)	1	49.3	89.2	inactive
Lce1h (late cornified envelope 1H)	2	95.6	116	inactive
Lce1h (late cornified envelope 1H)	3	111	140	inactive
Trmt6 (tRNA methyltransferase 6)	1	81	84	inactive
Trmt6 (tRNA methyltransferase 6)	2	62.3	77.9	inactive
Trmt6 (tRNA methyltransferase 6)	3	83.7	62.6	inactive
Pkd2l1 (polycystic kidney disease 2-like 1)	1	82.6	65.4	inactive
Pkd2l1 (polycystic kidney disease 2-like 1)	2	81.8	66.8	inactive
Pkd2l1 (polycystic kidney disease 2-like 1)	3	107	54	inactive
